Results from PMC5996148.
Where “and” joins values, the source holds several entries; their conditions need not be identical. Equal entries are not always repeated. Some of the results follow. For some assays here: Construct or isoform of the protein are uncertain.

Key:
Experiment in all cases: protein microarray (ProtoArray v5.0), streptavidin-Alexa Fluor 647
Conditions in all cases: 3'-biotin; 20 mM Tris (pH 7.5), 5 mM MgCl2, 100 mM KCl, 0.1% Tween-20, A/T-rich and random oligonucleotide blockers; temperature not stated; high values mean tight binding
[1] = test system: ACTC1 (human)
[2] = test system: ACTN2 (human)
[3] = test system: ACTN4 (human)
[4] = test system: ACY1 (human)
[5] = test system: ACY3 (human)
[6] = test system: ADD1 (human)
[7] = test system: ADI1 (human)
[8] = molecular target: ADRB2 (UniProt P07550)
[9] = test system: ADRM1 (human)
[10] = test system: AFAP1L1 (human)
[11] = test system: AFG3L1 (human)
[12] = test system: AHNAK (human)
[13] = test system: AHSG (human)
[14] = test system: AIF1 (human)
[15] = test system: AK3L1 (human)
[16] = test system: AKR1B10 (human)
[17] = test system: ALB (human)
[18] = test system: ALDH3A1 (human)
[19] = test system: ALG13 (human)
[20] = test system: ALOX15 (human)

Sequence: GGGGACAGGGGTATGGGGAGGGG [G4-3 biotinylated (CtG)]
- binding signal [1]: -0.322 z-score
- binding signal [2]: -0.333 z-score
- binding signal [3]: -0.315 z-score
- binding signal [4]: -0.336 z-score
- binding signal [5]: -0.332 z-score
- binding signal [6]: -0.339 z-score
- binding signal [7]: -0.34 z-score
- binding signal [8]: -0.287 z-score
- binding signal [9]: -0.339 z-score
- binding signal [10]: -0.316 z-score
- binding signal [11]: -0.327 z-score
- binding signal [12]: -0.298 z-score
- binding signal [13]: -0.304 z-score
- binding signal [14]: -0.345 z-score and -0.33 z-score
- binding signal [15]: -0.329 z-score
- binding signal [16]: -0.329 z-score
- binding signal [17]: -0.328 z-score
- binding signal [18]: -0.318 z-score
- binding signal [19]: -0.321 z-score
- binding signal [20]: -0.333 z-score
